# The other results are listed elsewhere or left out.
# Target: T1, OsSMF1 (Oryza sativa, UniProt Q6ZLB0 1-436)
# T1 sequence: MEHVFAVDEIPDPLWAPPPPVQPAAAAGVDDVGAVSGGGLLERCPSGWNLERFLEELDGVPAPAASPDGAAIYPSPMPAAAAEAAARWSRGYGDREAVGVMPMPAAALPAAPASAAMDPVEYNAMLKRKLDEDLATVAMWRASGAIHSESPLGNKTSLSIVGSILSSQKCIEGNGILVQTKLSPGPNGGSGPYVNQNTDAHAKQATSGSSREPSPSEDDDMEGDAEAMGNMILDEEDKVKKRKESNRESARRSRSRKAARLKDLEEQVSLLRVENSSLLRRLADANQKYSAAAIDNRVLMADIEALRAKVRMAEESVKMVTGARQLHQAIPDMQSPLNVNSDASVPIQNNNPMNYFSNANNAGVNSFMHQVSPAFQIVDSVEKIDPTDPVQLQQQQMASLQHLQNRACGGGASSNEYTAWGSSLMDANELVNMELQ
# Assay: protein-binding microarray (RPBM); PBS, 2% BSA, 51.3 ng/ul salmon testes DNA, 50 uM zinc acetate, 200 nM TF, 25 C, 1 h; high values mean tight binding
# Conditions: protein: recombinant; tags: N-terminal polyhistidine and DsRed monomer fusion (pET32a); chain copies: 2; label: CyDye5-dUTP incorporated in the synthesized complementary strand; 3' TTTTT single-stranded linker to array surface; dsDNA, one strand shown
# Procedure, shortened: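 Per-feature fluorescence intensity (arbitrary units), read on an Axon 4000B scanner, is the binding signal. Transcription factors carrying an N-terminal polyhistidine tag and DsRed fusion were expressed in E. coli BL21-CodonPlus and purified on Ni–NTA. A custom Agilent array, made double-stranded by primer extension with Cy5-dUTP and blocked with 2% BSA, was incubated with 200 nM protein in PBS, 2% BSA, salmon testes DNA and 50 µM zinc acetate at 25 °C for 1 h and then washed.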
row,Sequence,binding signal
1,AAACTGTACCCTGATGGCGCCATCTGAACGTGTCATGGCTCGGAGTCACCTAGTGCAG,4630 fluorescence intensity (a.u.)
2,GAAAACAAGATGAGGAGGAAGTTGCTGACATGTGAGTTCTCGGAGTCACCTAGTGCAG,3450 fluorescence intensity (a.u.)
3,TAACTTCTTGCTGAACCACGTTTGATCCTGTTATCAATTTCGGAGTCACCTAGTGCAG,3250 fluorescence intensity (a.u.)
4,TGTCGTGCATGTAGATCAATCTGCTTGCCGACGTGCATGCCGGAGTCACCTAGTGCAG,5620 fluorescence intensity (a.u.)
5,CGTTATCTCACGACGCCGTCCCGCCACGTCTCGCCGTTTCCGGAGTCACCTAGTGCAG,4760 fluorescence intensity (a.u.)
6,GCAATGCGGCGACAAGAGTTGTCTTGCTGACAGGTGGGGCCGGAGTCACCTAGTGCAG,4380 fluorescence intensity (a.u.)
7,CCCAACAATACACCACTGTTCAGTCATCTCATCACCTAGCCGGAGTCACCTAGTGCAG,3140 fluorescence intensity (a.u.)
8,ACTCCACTCACACTACTGTCACCAACCTTATCTACAAATTCGGAGTCACCTAGTGCAG,3170 fluorescence intensity (a.u.)
9,GTGAATGTGGAGGCACGGTGGCGAACGTGGCTGCGGTGGACGGAGTCACCTAGTGCAG,3240 fluorescence intensity (a.u.)
10,CACTTGTCACGAACAGGCGCCGTGCCACCTCGGCGCATGCCGGAGTCACCTAGTGCAG,5760 fluorescence intensity (a.u.)
11,AAAACGTCTAGCAACGACGCGTCGTCCCAGGCCGCTGCCGCGGAGTCACCTAGTGCAG,3450 fluorescence intensity (a.u.)
12,GCCTCCCCGTCGCCGGCAAGGAGGTCGACGCGAGGAGGATCGGAGTCACCTAGTGCAG,11100 fluorescence intensity (a.u.)
13,GCGGCGCCTCCGGGAAGCGCGGCGCCGCGTCCTCCTCCTCCGGAGTCACCTAGTGCAG,3170 fluorescence intensity (a.u.)
14,CTCTTCCACACAACACGCCACGCCACGCCTCGCCGCGCCGCGGAGTCACCTAGTGCAG,7740 fluorescence intensity (a.u.)
15,GCTGTTGGTTGGTGCCACATCCCACGCTGCCATGCCATGCCGGAGTCACCTAGTGCAG,4910 fluorescence intensity (a.u.)
16,AGTTCAACCGTACAAATACCCGCGCATACAGGTCACCTTCCGGAGTCACCTAGTGCAG,4860 fluorescence intensity (a.u.)
17,GAGGGGACATCCCCGTTGTTTGCATGTCACTTAAATGATTCGGAGTCACCTAGTGCAG,3260 fluorescence intensity (a.u.)
18,GATTTATTCATGTAGTACCTTATAGTGACGTAGATAAATCCGGAGTCACCTAGTGCAG,4920 fluorescence intensity (a.u.)
19,ATAAATAAACAAATAATCTTGACTCATCCTAATCCAGAGTCGGAGTCACCTAGTGCAG,4260 fluorescence intensity (a.u.)
20,CATCTCGCTCTCCTCCCTCCTCTCTCCTCTCCTCGTCTCCCGGAGTCACCTAGTGCAG,3910 fluorescence intensity (a.u.)
21,GAGCTCCCAGCCTCCCACCCGTCTGCCACTGACAGGACGTCGGAGTCACCTAGTGCAG,3280 fluorescence intensity (a.u.)

row,Sequence,binding signal
1,GCATAAATAAAGCGGTGCGTGGATCCTACGTATACCAACCCGGAGTCACCTAGTGCAG,3570 fluorescence intensity (a.u.)
2,GAGATATCTTCTTCTCCCTTCAAGAACTCCATGGAAATCTCGGAGTCACCTAGTGCAG,7050 fluorescence intensity (a.u.)
3,GTTTATTATATGTGTTTTGGAATCCTTCGTGTCGACATGACGGAGTCACCTAGTGCAG,3310 fluorescence intensity (a.u.)
4,TCCGATCCGTTTGTTGTTGTTGCCGTGGCGTGCCTTGTGACGGAGTCACCTAGTGCAG,3240 fluorescence intensity (a.u.)
5,TGGGTTGAATATGAGCTTGAATATTGGTGGAGTGATACATCGGAGTCACCTAGTGCAG,3240 fluorescence intensity (a.u.)
6,CAGCTGGCTATAAATCTGTAGCCCGCTGCTCTTCTCTCTCCGGAGTCACCTAGTGCAG,3630 fluorescence intensity (a.u.)
7,AGCGAACGGCCGTCTGCCACGTCATTTTCGCCGCCCTCTGCGGAGTCACCTAGTGCAG,31900 fluorescence intensity (a.u.)
8,CGGACGATCATGAACACATCACCAGGGGCTTAACACGCCACGGAGTCACCTAGTGCAG,4120 fluorescence intensity (a.u.)
9,TTGGTTGGATGGATGACGTTGCTGTGGCCGGCTGTTTCCACGGAGTCACCTAGTGCAG,4190 fluorescence intensity (a.u.)
10,ATAAAGTAACACATACACAAAGCCACATCATCAATATTTTCGGAGTCACCTAGTGCAG,8990 fluorescence intensity (a.u.)
11,GTATGACGCCGTTGACTTTTCGATCAACGTTTGACTATTTCGGAGTCACCTAGTGCAG,3150 fluorescence intensity (a.u.)
12,TTCATGGTTGGGCTGCCTGGCACGTCACGCCCCAATGCGTCGGAGTCACCTAGTGCAG,12500 fluorescence intensity (a.u.)
13,ATGTGTAATGACATGACTAGGCATTCCCTTCAGTTAGTCTCGGAGTCACCTAGTGCAG,9940 fluorescence intensity (a.u.)
14,ACGCAATATGTAAACCGTACACGTACATACCTACTAGGTACGGAGTCACCTAGTGCAG,3420 fluorescence intensity (a.u.)
15,GCAACGTCGTCGAGGCCGTCCGCCACGTGCGCTCCGTCATCGGAGTCACCTAGTGCAG,7380 fluorescence intensity (a.u.)
16,TCGTGCTGACAACATATATACGTGCTCGATCGTACCACGGCGGAGTCACCTAGTGCAG,6560 fluorescence intensity (a.u.)
17,CTTGCATATGCACTGTCACTCTCGTACTAGGGTGTCATGCCGGAGTCACCTAGTGCAG,5420 fluorescence intensity (a.u.)
18,TGACCGTTCTTCTTATTTGAAATTTTCTTATGATTAGCATCGGAGTCACCTAGTGCAG,22600 fluorescence intensity (a.u.)
19,ATGTTTCTTACATTTTGTAACGTCATCCATGTTGCTGTGACGGAGTCACCTAGTGCAG,4410 fluorescence intensity (a.u.)
20,GAGTAGTTGATGACTAACCCTGCTGCAACTAAGCTTAGGGCGGAGTCACCTAGTGCAG,3640 fluorescence intensity (a.u.)
21,GACGGGGCGGATGGCTAGCCCCTACCTGACACGTGACACTCGGAGTCACCTAGTGCAG,6090 fluorescence intensity (a.u.)

# Single entries from the results shown:
# Value of CAGCTGGCTATAAATCTGTAGCCCGCTGCTCTTCTCTCTCCGGAGTCACCTAGTGCAG under binding signal: 3630 fluorescence intensity (a.u.)
# Value of CGGACGATCATGAACACATCACCAGGGGCTTAACACGCCACGGAGTCACCTAGTGCAG under binding signal: 4120 fluorescence intensity (a.u.)

# From publication PMC7819943, “Rice protein-binding microarrays: a tool to detect cis-acting elements near promoter regions in rice”
